# Data reported in the supplement of paper PMC5407854, “Inhibitor of ppGalNAc-T3-mediated O-glycosylation blocks cancer cell invasiveness and lowers FGF23 levels” (eLife, 2017).
# Some of the results follow. Most entries show no effect beyond the scatter of the controls.
# Test system: ppGalNAc-T3 sensor
# Experiment: T3 sensor activation Q score (MG/GFP ratio z-score vs DMSO controls) (SD units); higher = more sensor activation (inhibition of ppGalNAc-T3 glycosylation)
# Settings: HEK293 sensor cells; 10 µM; 6 h
# Description: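 Cells were treated with compound at 10 uM for 6 h, then MG/GFP ratio was read by flow cytometry (10,000 cells per well, duplicate wells). Q = (R - R_neg)/SD_neg relative to DMSO vehicle controls; the signal rises when the glycosyltransferase is inhibited.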
row,SMILES,T3 sensor activation Q score
1,COc1ccc(CN2CCN(c3ccccc3)CC2)cc1O,-0.14
2,CCN1CCN(Cc2ccc([N+](=O)[O-])cc2)CC1,-0.045
3,CCOc1ccccc1N1CCN(Cc2cccc(C)c2)CC1,-0.17
4,C=CCOc1ccccc1CN1CCN(c2ccccc2)CC1,0.615
5,COc1ccc(CN2CCN(c3ccc(F)cc3)CC2)cc1C,-0.55
6,Cc1ccccc1N1CCN(Cc2cccc([N+](=O)[O-])c2)CC1,0.25
7,CCOc1ccccc1CN1CCN(C)CC1,-0.41
8,CN(C)C=NC(=O)CN1CCCC1=O,0.39
9,COc1ccc(CN2CCN(C)CC2)cc1OC,0.55
10,Cc1ccccc1N1CCN(Cc2cccc(F)c2)CC1,0.24
11,CCOc1cc(CN2CCN(c3ccccc3Cl)CC2)ccc1O,0.115
12,Fc1ccc(CN2CCN(c3ccccc3)CC2)cc1,-0.38
13,c1ccc2c(CCNC3C4CC5CC(C4)CC3C5)c[nH]c2c1 (stereo not given),1.35
14,c1ccc(N2CCN(Cc3cccs3)CC2)cc1,-0.09
15,COc1cccc(CN2CCN(c3ccccc3OC)CC2)c1,-0.75
16,Fc1ccc(CN2CCN(c3ccccc3F)CC2)cc1F,1.85
17,Fc1ccccc1N1CCN(Cc2ccccc2)CC1,-0.35
18,Cc1ccccc1N1CCN(Cc2ccc(O)cc2)CC1,0.225
19,Cc1ccc(CN2CCN(c3ccc(Cl)cc3)CC2)cc1,0.34
20,O=[N+]([O-])c1ccc(N2CCN(Cc3cccc(Br)c3)CC2)cc1,0.615

row,SMILES,T3 sensor activation Q score
1,Cc1ccccc1N1CCN(Cc2ccc3c(c2)OCO3)CC1,0.45
2,CCOc1ccccc1N1CCN(Cc2cccc(OC)c2)CC1,0.18
3,CCOc1ccc(CN2CCN(c3ccccc3C)CC2)cc1,-0.15
4,Clc1ccc(N2CCN(Cc3ccc4c(c3)OCO4)CC2)cc1,-0.69
5,COc1ccc(N2CCN(Cc3ccc(Br)cc3)CC2)cc1,-0.645
6,COc1ccccc1N1CCN(Cc2cc(C)ccc2C)CC1,0.325
7,CCN1CCN(Cc2cc(OC)c(OC)cc2[N+](=O)[O-])CC1,-0.635
8,Cc1ccccc1N1CCN(Cc2cccc(Cl)c2)CC1,0.385
9,COc1ccccc1N1CCN(Cc2ccc(C)cc2C)CC1,0.1
10,COc1ccc(CCNC2C3CC4CC(C3)CC2C4)cc1OC (stereo not given),0.875
11,CCN1CCN(Cc2cccc(Cl)c2)CC1,-0.065
12,Cc1ccccc1N1C(=O)CC(=O)NC1=O,-0.42
13,COc1cccc(CN2CCN(c3ccccc3Cl)CC2)c1,-0.15
14,CN1CCN(Cc2c(F)cccc2F)CC1,0.06
15,Brc1ccc(CN2CCNCC2)cc1,-0.235
16,Brc1ccc(CN2CCN(c3ccccc3)CC2)cc1,-0.135
17,COc1ccc(CNCCc2ccccc2)cc1C,-0.14
18,Fc1ccc(CN2CCN(c3cccc(Cl)c3)CC2)cc1,-0.48
19,Oc1ccc(CN2CCN(c3ccccc3)CC2)cc1,0.35
20,Cc1ccccc1N1CCN(Cc2ccccc2)CC1,-0.46

# Arranged by length of the SMILES (rising): ten of the compounds above
row,SMILES,T3 sensor activation Q score
15,Brc1ccc(CN2CCNCC2)cc1,-0.235
11,CCN1CCN(Cc2cccc(Cl)c2)CC1,-0.065
12,Cc1ccccc1N1C(=O)CC(=O)NC1=O,-0.42
19,Oc1ccc(CN2CCN(c3ccccc3)CC2)cc1,0.35
16,Brc1ccc(CN2CCN(c3ccccc3)CC2)cc1,-0.135
8,Cc1ccccc1N1CCN(Cc2cccc(Cl)c2)CC1,0.385
3,CCOc1ccc(CN2CCN(c3ccccc3C)CC2)cc1,-0.15
2,CCOc1ccccc1N1CCN(Cc2cccc(OC)c2)CC1,0.18
10,COc1ccc(CCNC2C3CC4CC(C3)CC2C4)cc1OC (stereo not given),0.875
4,Clc1ccc(N2CCN(Cc3ccc4c(c3)OCO4)CC2)cc1,-0.69
